# The campaign covered roughly 400,000 compounds. About 5,500 (1.4%) were called active. Inconclusive means that the source gave no clear call. Such entries were picked first, then a sample of the others. Calls follow the shape of the dose curve; as a rule, active = well fitted cell-killing curve with a large enough effect; inconclusive = small, poorly fitted or top-dose-only effect, or effect the other way; inactive = flat fitted curve, though single readings scatter. A potency beside an inconclusive call is a rough fit, not a confirmed value.
# Experiment: qHTS assay for MDR1-selective chemotherapeutics: Primary screen using the parental adenocarcinoma cell KB-3-1; also: nearly all actives have a fitted effect of over 60% in size
# Conditions: KB-3-1 viability, CellTiter-Glo ATP luminescence, 72 h; activity change, negative = cytotoxic: at 46.1 µM (top of the series)
# Method in brief: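 72 h, 37 °C compound treatment of KB-3-1 parental cells; CellTiter-Glo added, 10 min, luminescence read. Data corrected against DMSO-only plates and normalized before curve fitting.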
# % is scaled to controls: 0 for no effect and ±100 for the full control effect; potency is read from the fitted curve at half-maximal effect.
SMILES,Potency,"activity change, negative = cytotoxic"
CCOC(=O)C(=CNc1cc(C)nn1-c1ccccc1)C(=O)OCC,inactive,
CCOc1ccccc1C(=O)NC1CCN(Cc2nnnn2C2CCCC2)CC1,inactive,
CC(=O)c1ccc(NC(=O)CN2c3cccc4cccc(c34)S2(=O)=O)cc1,"inconclusive: 29.1 µM [rising, single point]",
O=C(CCCN1C(=O)c2cccc3cccc(c23)C1=O)N1CCN(c2ccccn2)CC1,"inconclusive: 4.61 µM [rising, full curve]",
O=C(NCc1ccco1)c1ccc(Br)s1,"inconclusive: 20.6 µM [cytotoxic, single point]",
COc1ccc(-c2csc(NC(=O)C3CCN(C(=O)c4ccc(F)cc4)CC3)n2)cc1OC,inactive,
Cc1ccc(C)c(S(=O)(=O)N2CCN(C(C(=O)Nc3ccc(F)cc3)c3ccccc3)CC2)c1 (stereo unspecified),inactive,
COc1ccc(Cn2c(C(=O)O)c(CNCc3ccc(C)o3)c3ccc(C)cc32)cc1,"inconclusive: 3.66 µM [cytotoxic, full curve]",
CC1(C)CC(=O)C(C(C2=C(O)CC(C)(C)CC2=O)c2ccc(Br)s2)C(=O)C1 (stereo unspecified),"inconclusive: 29.1 µM [cytotoxic, single point]",
COc1ccc2[nH]c(=O)c(CN(Cc3cccs3)S(=O)(=O)c3cccc4nsnc34)cc2c1,"inconclusive: 20.6 µM [cytotoxic, single point]",
COCC(=O)Nc1ccc(N2CCOCC2)c(S(=O)(=O)Nc2ccc(OC)cc2)c1,"inconclusive: 16.4 µM [cytotoxic, partial curve, poor fit]",
CC(C)C(NC(=O)C(Cc1ccccc1)NC(=O)OCc1ccccc1)C(=O)O (stereo unspecified),,inconclusive: -0.752%
Cc1cc(I)ccc1Nc1nc(NCCN2CCOCC2)nc(N2CCOCC2)n1,"inconclusive: 29.1 µM [cytotoxic, single point]",
Cc1ccc2c(c1C)NC(=O)C21N2CCCC2C(C(=O)c2ccc3ccccc3c2)C12C(=O)Nc1ccccc12 (stereo unspecified),"inconclusive: 29.1 µM [cytotoxic, single point]",
O=C(c1cccc(Cl)c1)N1CCC(c2nc3ccccc3[nH]2)CC1,"inconclusive: 3.66 µM [rising, partial curve, poor fit]",
COc1cccc(/C=C/C(=O)Nc2ccc3nc(N4CCN(C)CC4)cc(C)c3c2)c1OC,inactive,
O=S1(=O)CCOCCCN1Cc1ccccc1F,inactive,
CCCn1c2ccccc2c2cnn(CC(=O)N(CCCOC)Cc3ccco3)c(=O)c21,"inconclusive: 29.1 µM [cytotoxic, single point]",
N#Cc1ccc(Oc2ccc(NC(=O)C3CC=CCC3C(=O)O)cc2)cc1 (stereo unspecified),inactive,
CN(C)S(=O)(=O)c1ccc(C(=O)Nc2nnc(-c3ccco3)o2)cc1,"inconclusive: 16.4 µM [cytotoxic, single point]",
COC(=O)[C@@]1(Cc2ccc(F)cc2)[C@H]2c3cc(C(=O)N(C)C)n(Cc4ccc(C)c(F)c4F)c3C[C@H]2CN1C(=O)c1ccccc1,"inconclusive: 32.6 µM [cytotoxic, single point]",
O=C1C=C(Nc2ccc(F)cc2)c2ccccc2C1=O,"inconclusive: 29.1 µM [cytotoxic, single point]",

SMILES,Potency,"activity change, negative = cytotoxic"
O=C1OC(=O)C2C1[C@@H]1CC[C@H]2O1 (stereo partly specified),"inconclusive: 29.1 µM [cytotoxic, single point]",
CCOC(=O)Cn1c(=NC(=O)c2ccc([N+](=O)[O-])s2)sc2ccccc21,active: 4.61 µM,
COc1ccc(CC(=O)Nc2nc3ccc(F)cc3s2)cc1S(=O)(=O)N1CCOCC1,inactive,
CCOc1ccc(S(=O)(=O)N2CCN(C(=O)c3oc4ccc(OC)cc4c3C)CC2)cc1,"inconclusive: 29.1 µM [cytotoxic, single point]",
O=S(=O)(/C=C/C=C/S(=O)(=O)c1ccccc1)c1ccccc1,active: 6.51 µM,
Cc1ccc(/C=N/Nc2ncc(Cl)cc2Cl)s1,"inconclusive: 23.1 µM [cytotoxic, single point]",
NS(=O)(=O)c1ccc(NC(=O)/C=C/c2ccc3c(c2)OCO3)cc1,active: 2.31 µM,
CN1CCCC2(CCCN(Cc3nc(Cc4cccc(C(F)(F)F)c4)no3)C2)C1 (stereo unspecified),"inconclusive: 29.1 µM [cytotoxic, single point]",
CCCOc1ccc(C(=O)Nc2ccc(S(=O)(=O)N3C[C@@H]4C[C@@H](C3)c3cccc(=O)n3C4)cc2)cc1,"inconclusive: 25.9 µM [cytotoxic, single point]",
COc1ccc(NC2CCCN(C(=O)CCCn3cncn3)C2)cc1OC (stereo unspecified),inactive,
COC(=O)c1ccc(N2CCN(c3ccccc3)CC2)c(NC(=O)C2CC2)c1,inactive,
CC(C)COC(=O)N(C)C[C@@H]1OCc2cnnn2CCCC(=O)N([C@H](C)CO)C[C@H]1C,"inconclusive: 9.2 µM [rising, partial curve, poor fit]",
CN(C)c1ccc(Sc2nnc(NC(=O)Nc3ccc(Cl)cc3Cl)s2)cc1,"inconclusive: 29.1 µM [cytotoxic, single point]",
CS(=O)(=O)N(CC(=O)Nc1ccccc1Cl)c1ccc(Cl)cc1,inactive,
CCOC(=O)c1c(C)sc2c1N(C(=O)CN1CCOCC1)c1cc(Cl)ccc1S2,"inconclusive: 16.4 µM [cytotoxic, single point]",
COc1ccc(C(=O)N2CCCC(c3nc(-c4ccc(OC)c(OC)c4)no3)C2)c(OC)c1 (stereo unspecified),inactive,
COc1cc(/C=C(\C#N)c2nc3ccccc3[nH]2)ccc1OCc1cccc(C(F)(F)F)c1,"inconclusive: 16.4 µM [cytotoxic, single point]",
O=c1n(Cc2ccc(Cl)cc2)c2sc3c(c2c2ncnn12)CCCC3,"inconclusive: 29.1 µM [cytotoxic, single point]",
CN(Cc1ccccc1)C(=S)NC(=O)c1cccs1,"inconclusive: 29.1 µM [cytotoxic, single point]",
CNC(=O)/C(C#N)=C/c1c(N(Cc2ccccc2)Cc2ccccc2)nc2c(C)cccn2c1=O,active: 16.4 µM,
Cc1cccc(N=C2NC(=O)/C(=C/C=C/c3ccco3)S2)c1,"inconclusive: 18.4 µM [cytotoxic, single point]",
COc1ccc(C)cc1N(C(=O)c1snc(C(N)=O)c1N)C(C(=O)NC1CCCC1)c1ccc(F)cc1 (stereo unspecified),"inconclusive: 29.1 µM [cytotoxic, single point]",

SMILES,Potency,"activity change, negative = cytotoxic"
CS(=O)(=O)N(CC(=O)Nc1ccc(Br)cc1)C1CCCCC1,active: 23.1 µM,
CN(C)c1ccc(/C=C/c2ccnc3ccc(I)cc23)cc1,,inconclusive: -28.8%
COC(=O)c1c(NC(=O)C(C)(C)C)sc2c1C(C(=O)OC)CC2 (stereo unspecified),"inconclusive: 18.4 µM [cytotoxic, partial curve]",
Cc1cc(/C=N\NC(=O)c2cccs2)c(C)n1-c1ccc2ncccc2c1,"inconclusive: 18.4 µM [cytotoxic, single point]",
O=C(NNc1ccccn1)C(=O)NNS(=O)(=O)c1ccc(Cl)cc1,"inconclusive: 20.6 µM [cytotoxic, single point]",
Cc1ccc(NC(=S)NNC(=O)CSc2nc3ccccc3c(=O)n2-c2ccc(C)cc2)cc1,inactive,
CCc1ccc(C(=O)NN(C(=O)c2ccc(CC)cc2)C(C)(C)C)cc1,"inconclusive: 25.9 µM [cytotoxic, single point]",
CN(Cc1ccccc1)C(=O)COC(=O)Cc1ccc(Cl)cc1,"inconclusive: 29.1 µM [rising, single point]",
CCCn1nc(NC(=O)c2ccco2)c2cc3ccccc3nc21,"inconclusive: 7.31 µM [rising, partial curve, poor fit]",
Cc1[nH]c2ccccc2c1SCCNC(=O)c1ccc(S(=O)(=O)N2CCCC2)cc1,"inconclusive: 29.1 µM [cytotoxic, single point]",
CC(=O)N/C(=C/c1ccc(OS(=O)(=O)c2ccc(C)cc2)cc1)C(=O)NCCO,inactive,
COc1ccccc1-n1cnc2cc(NCc3cccs3)ccc21,active: 1.16 µM,
COc1ccc(/C=C/C(=O)C(C)(C)C)cc1OC,inactive,
CCOC(=O)c1oc2ccc(S(=O)(=O)n3nc(-c4ccc(Br)cc4)cc3N)cc2c1C,"inconclusive: 9.2 µM [cytotoxic, single point]",
Cc1cc(NC(=O)CSc2nc3cc(Cl)ccc3c(=O)n2C(C)C)no1,inactive,
Cc1ccc(S(=O)(=O)NC2c3cccc4cccc(c34)C2Sc2nncn2C)cc1 (stereo unspecified),"inconclusive: 29.1 µM [rising, single point]",
CC(C)c1ccc(NC(=O)C2CCCN(S(=O)(=O)c3ccc4c(c3)C(C)(C)C(=O)N4C)C2)cc1 (stereo unspecified),"inconclusive: 25.9 µM [cytotoxic, partial curve, poor fit]",
COc1ccc(C2CC(=O)N(Cc3cccc(F)c3)c3ccccc3S2)cc1 (stereo unspecified),"inconclusive: 20.6 µM [cytotoxic, single point]",
COc1ccc(N2CCN(Cc3nc4ccsc4c(=O)[nH]3)CC2)cc1,inactive,
FC(F)(F)c1cccc(Cn2nnnc2-c2ccc(Cl)cc2)c1,"inconclusive: 14.6 µM [cytotoxic, single point]",
CC[C@]12c3[nH]c4cc(CCC(=O)N(C)C)ccc4c3CCN1C(=O)[C@@H](CC(=O)NC/C=C(\C)CCC=C(C)C)C[C@@H]2C(=O)N1CCN(C(=O)c2ccco2)CC1,"inconclusive: 29.1 µM [cytotoxic, single point]",
CCN(CC)c1ccc2c(C)c(-c3ccc(N)cc3)c(=O)oc2c1,"inconclusive: 9.2 µM [cytotoxic, partial curve, poor fit]",

# Arranged by heavy-atom count (descending): part of the list above.
SMILES,Potency,"activity change, negative = cytotoxic"
CC[C@]12c3[nH]c4cc(CCC(=O)N(C)C)ccc4c3CCN1C(=O)[C@@H](CC(=O)NC/C=C(\C)CCC=C(C)C)C[C@@H]2C(=O)N1CCN(C(=O)c2ccco2)CC1,"inconclusive: 29.1 µM [cytotoxic, single point]",
Cc1ccc(NC(=S)NNC(=O)CSc2nc3ccccc3c(=O)n2-c2ccc(C)cc2)cc1,inactive,
Cc1[nH]c2ccccc2c1SCCNC(=O)c1ccc(S(=O)(=O)N2CCCC2)cc1,"inconclusive: 29.1 µM [cytotoxic, single point]",
CC(=O)N/C(=C/c1ccc(OS(=O)(=O)c2ccc(C)cc2)cc1)C(=O)NCCO,inactive,
COc1ccc(/C=C/C(=O)C(C)(C)C)cc1OC,inactive,

# From PubChem BioAssay AID1347075 (National Center for Advancing Translational Sciences (NCATS), 2019)
